Measured values from publication PMC8546420.
No constants are given. Whether binding was seen depends on the method and setting. Binding seen in cells or lysates may run through a third protein. Some entries that bind do so weakly or less than the wild type. For some assays here: Sequences can lack the tags named with a protein.

By UniProt entry, the sequences of proteins in these tests, tags left out.
UniProt Q6ZNE5: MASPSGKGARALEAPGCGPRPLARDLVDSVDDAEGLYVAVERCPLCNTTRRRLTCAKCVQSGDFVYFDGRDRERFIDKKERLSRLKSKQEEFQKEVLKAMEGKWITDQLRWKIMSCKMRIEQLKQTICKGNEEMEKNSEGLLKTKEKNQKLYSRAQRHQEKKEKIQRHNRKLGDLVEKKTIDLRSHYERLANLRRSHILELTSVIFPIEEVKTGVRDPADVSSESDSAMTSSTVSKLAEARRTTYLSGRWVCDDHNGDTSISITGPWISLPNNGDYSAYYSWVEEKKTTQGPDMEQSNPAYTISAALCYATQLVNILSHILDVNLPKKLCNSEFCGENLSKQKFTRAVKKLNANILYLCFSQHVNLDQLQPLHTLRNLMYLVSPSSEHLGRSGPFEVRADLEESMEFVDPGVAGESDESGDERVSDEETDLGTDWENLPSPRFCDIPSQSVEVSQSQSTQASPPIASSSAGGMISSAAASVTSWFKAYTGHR
UniProt Q14457: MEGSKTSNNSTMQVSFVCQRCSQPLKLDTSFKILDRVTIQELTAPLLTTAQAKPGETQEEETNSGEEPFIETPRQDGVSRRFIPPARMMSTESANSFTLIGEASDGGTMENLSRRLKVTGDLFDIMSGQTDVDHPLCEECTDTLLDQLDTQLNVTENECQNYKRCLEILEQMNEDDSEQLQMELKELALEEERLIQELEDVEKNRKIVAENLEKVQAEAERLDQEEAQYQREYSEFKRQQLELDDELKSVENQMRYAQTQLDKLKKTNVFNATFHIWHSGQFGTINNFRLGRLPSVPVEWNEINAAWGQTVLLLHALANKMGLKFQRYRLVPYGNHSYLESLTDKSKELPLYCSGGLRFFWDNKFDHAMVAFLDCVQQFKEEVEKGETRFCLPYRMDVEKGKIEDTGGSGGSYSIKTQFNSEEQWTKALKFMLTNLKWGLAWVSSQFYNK
UniProt Q99570: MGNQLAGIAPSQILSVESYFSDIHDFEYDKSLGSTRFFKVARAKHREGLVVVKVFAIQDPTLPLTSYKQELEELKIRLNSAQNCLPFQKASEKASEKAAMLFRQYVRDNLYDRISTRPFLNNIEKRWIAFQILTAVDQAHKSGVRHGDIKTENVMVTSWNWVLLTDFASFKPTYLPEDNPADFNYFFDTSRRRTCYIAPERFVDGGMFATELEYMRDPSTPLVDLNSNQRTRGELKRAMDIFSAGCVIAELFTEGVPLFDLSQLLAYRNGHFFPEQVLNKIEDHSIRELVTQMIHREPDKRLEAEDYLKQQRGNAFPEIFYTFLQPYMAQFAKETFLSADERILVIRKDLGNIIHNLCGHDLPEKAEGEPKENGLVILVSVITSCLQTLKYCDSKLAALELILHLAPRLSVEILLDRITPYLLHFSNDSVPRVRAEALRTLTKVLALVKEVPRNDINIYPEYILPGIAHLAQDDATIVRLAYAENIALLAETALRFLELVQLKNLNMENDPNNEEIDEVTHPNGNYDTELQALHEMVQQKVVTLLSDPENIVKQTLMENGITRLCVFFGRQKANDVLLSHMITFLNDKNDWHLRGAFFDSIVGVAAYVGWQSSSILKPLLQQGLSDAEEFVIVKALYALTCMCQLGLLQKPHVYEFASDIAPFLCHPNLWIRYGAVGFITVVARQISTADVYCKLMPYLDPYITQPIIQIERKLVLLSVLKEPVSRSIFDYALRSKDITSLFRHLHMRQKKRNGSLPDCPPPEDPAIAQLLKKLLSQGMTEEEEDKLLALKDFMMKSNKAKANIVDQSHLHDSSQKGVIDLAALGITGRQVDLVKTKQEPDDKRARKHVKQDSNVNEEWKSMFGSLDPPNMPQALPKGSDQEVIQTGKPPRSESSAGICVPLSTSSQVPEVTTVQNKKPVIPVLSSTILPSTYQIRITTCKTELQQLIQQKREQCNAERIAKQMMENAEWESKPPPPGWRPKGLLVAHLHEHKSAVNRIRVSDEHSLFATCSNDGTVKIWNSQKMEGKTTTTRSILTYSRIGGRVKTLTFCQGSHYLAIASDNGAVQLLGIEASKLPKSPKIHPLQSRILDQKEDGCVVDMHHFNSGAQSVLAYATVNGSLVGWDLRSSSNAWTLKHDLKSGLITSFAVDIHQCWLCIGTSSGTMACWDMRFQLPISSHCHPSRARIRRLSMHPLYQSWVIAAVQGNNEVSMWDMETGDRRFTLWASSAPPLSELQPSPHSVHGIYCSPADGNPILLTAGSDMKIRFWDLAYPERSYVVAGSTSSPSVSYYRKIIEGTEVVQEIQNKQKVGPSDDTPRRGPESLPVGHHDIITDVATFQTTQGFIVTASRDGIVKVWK

Key:
[1] = target: USP11-GFP (ubiquitin-specific protease 11, WT, GFP-tagged) (human) (UniProt P51784); assay: co-IP; 293 cells co-transfected with GFP-tagged USP11 (WT or C318S) and the tagged partner; basal conditions or Torin 1; in one mTOR experiment His-ubiquitin was also expressed; GFP-Trap or Myc-Trap beads, 4 °C, 1 h; IP buffer 20 mM Tris HCl pH 7.5, 150 mM NaCl, 1% NP-40, 0.5% Triton-X; Western …
[2] = target: T1, USP11(C318S)-GFP (catalytically inactive USP11, GFP-tagged) (human) (UniProt P51784); assay: as above
T1 sequence: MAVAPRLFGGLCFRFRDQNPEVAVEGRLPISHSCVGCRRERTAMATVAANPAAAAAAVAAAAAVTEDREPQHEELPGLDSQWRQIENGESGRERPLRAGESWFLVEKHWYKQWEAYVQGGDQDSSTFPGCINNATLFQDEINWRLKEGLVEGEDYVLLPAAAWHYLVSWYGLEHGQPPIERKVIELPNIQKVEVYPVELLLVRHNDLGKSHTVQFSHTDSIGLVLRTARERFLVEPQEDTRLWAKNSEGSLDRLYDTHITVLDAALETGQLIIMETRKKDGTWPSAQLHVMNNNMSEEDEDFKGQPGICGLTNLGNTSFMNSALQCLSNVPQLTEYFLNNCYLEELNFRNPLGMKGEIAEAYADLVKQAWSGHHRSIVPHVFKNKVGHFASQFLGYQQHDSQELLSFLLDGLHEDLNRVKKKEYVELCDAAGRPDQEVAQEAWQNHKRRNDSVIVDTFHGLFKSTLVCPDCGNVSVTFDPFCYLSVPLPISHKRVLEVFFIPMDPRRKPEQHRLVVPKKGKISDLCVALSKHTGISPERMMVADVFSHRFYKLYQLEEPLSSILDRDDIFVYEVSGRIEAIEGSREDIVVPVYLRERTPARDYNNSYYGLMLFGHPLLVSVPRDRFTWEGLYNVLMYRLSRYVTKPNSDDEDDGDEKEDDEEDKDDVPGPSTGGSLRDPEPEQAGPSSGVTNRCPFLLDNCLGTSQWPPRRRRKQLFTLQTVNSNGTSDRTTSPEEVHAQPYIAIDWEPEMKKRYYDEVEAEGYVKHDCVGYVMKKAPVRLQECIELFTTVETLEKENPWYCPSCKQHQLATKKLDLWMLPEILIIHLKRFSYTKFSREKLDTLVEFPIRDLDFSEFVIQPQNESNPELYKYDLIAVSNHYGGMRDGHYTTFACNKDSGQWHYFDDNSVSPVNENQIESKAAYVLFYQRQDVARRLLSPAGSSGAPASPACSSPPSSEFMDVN

Substance | binding [1] | binding [2]
ATG14 (as coprecipitated with USP11, Fig. S2) (from UniProt Q6ZNE5 1-492) | binds | 
Beclin 1 (from UniProt Q14457 1-450) | binds | 
HA-NRBF2 (nuclear receptor-binding factor 2) (from UniProt Q96F24 1-287) |  | binds
HA-VPS15 (from UniProt Q99570 1-1358) | binds | binds
